The values below come from the supplement of paper PMC8960247.

Counter-ions that a name gives are not always drawn. Single values of this set are uncertain.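 Immortalized human renal angiomyolipoma cells with an empty vector keep TSC2 lost. A luminescent ATP assay measured viability, normalized per plate to vehicle-treated wells, in low-serum medium where TSC2-rescued cells fail to grow.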

The assay has as its system 621-102 (TSC2-deficient). In words: relative viability vs DMSO (fraction); higher = less cytotoxic. To be noted: serum: 0.1% FBS, 72 h.

For the molecule `N#CC(=C(/N)Sc1ccccc1N)/C(C#N)=C(\N)Sc1ccccc1N` [U0126-EtOH], the relative viability by setting is: (0.0128 nM) 0.829; (0.064 nM) 0.811; (0.32 nM) 0.789; (1.6 nM) 0.842; (8 nM) 0.756; (40 nM) 0.686. The molecule also displayed a relative viability (200 nM) of 0.76, a relative viability (1000 nM) of 0.706 and a relative viability (5000 nM) of 0.828.
With `CCc1c2c(nc3ccc(OC(=O)N4CCC(N5CCCCC5)CC4)cc13)-c1cc3c(c(=O)n1C2)COC(=O)[C@]3(O)CC` [Irinotecan HCl Trihydrate], the relative viability was determined as 0.815 (0.0128 nM); 0.841 (0.064 nM); 0.821 (0.32 nM); 0.789 (1.6 nM); 0.785 (8 nM); 0.729 (40 nM). Besides, the relative viability runs as follows: (200 nM) 0.715; (1000 nM) 0.705; (5000 nM) 0.086.
On to `CNC(=O)c1ccc(C)c(-n2c(C)cc(OCc3ccc(F)cc3F)c(Br)c2=O)c1`, for which the relative viability reads like this: (0.0128 nM) 0.75; (0.064 nM) 0.685; (0.32 nM) 0.793; (1.6 nM) 0.805; (8 nM) 0.72; (40 nM) 0.709. Besides, the relative viability was 0.65 (200 nM), 0.722 (1000 nM) and 0.466 (5000 nM).
Take `CN(C)C(=O)Oc1cccc([N+](C)(C)C)c1` [Neostigmine bromide]: the relative viability reads like this: (0.0128 nM) 0.779; (0.064 nM) 0.69; (0.32 nM) 0.688; (1.6 nM) 0.64; (8 nM) 0.574; (40 nM) 0.587. Besides, the relative viability by setting is: (200 nM) 0.532; (1000 nM) 0.359; (5000 nM) 0.265.
With `O=C(c1ccc(F)cc1)C1CCN(CCn2c(=O)[nH]c3ccccc3c2=O)CC1` [Ketanserin (Vulketan Gel)], the relative viability came out at 0.799 (0.0128 nM); 0.834 (0.064 nM); 0.834 (0.32 nM); 0.795 (1.6 nM); 0.751 (8 nM); 0.71 (40 nM). The relative viability was found to be 0.717 (200 nM), 0.718 (1000 nM) and 0.584 (5000 nM).
As to `CC(C)[C@H](O)C(=O)N[C@@H](C)C(=O)N[C@@H]1C(=O)N(C)CCc2ccccc21`, the relative viability is 0.721 (0.0128 nM); 0.864 (0.064 nM); 0.896 (0.32 nM); 0.737 (1.6 nM); 0.707 (8 nM); 0.798 (40 nM). The same molecule displayed a relative viability (200 nM) of 0.812, a relative viability (1000 nM) of 0.685 and a relative viability (5000 nM) of 0.734.
In the case of `COc1ccc(-c2cc3c(C)nc(N)nc3n([C@H]3CC[C@H](OCCO)CC3)c2=O)cn1`, the relative viability by setting is: (0.0128 nM) 0.211; (0.064 nM) 0.891; (0.32 nM) 2.08; (1.6 nM) 1.96; (8 nM) 1.88; (40 nM) 0.338. Further, the relative viability by setting is: (200 nM) 1.62; (1000 nM) 0.124; (5000 nM) 0.122.
